Measurements as given in paper PMC12040169 (PLOS Biology, 2025).
The list shows a part of the results.

Tested on: T1, CTL2-GFP (C. trachomatis L2/434/Bu, GFP-expressing)
T1 construct: L2/434/Bu, GFP-expressing
Set-up: species or system HeLa; Intracellular C. trachomatis growth in HeLa cells, bulk GFP fluorescence relative to DMSO
Settings: bulk GFP, single well; 28.5 h, 10 µM; inhibitor

SMILES | % of control remaining [%]
O=C(O)CCCNC(=O)COc1ccccc1OCC(=O)NCCCC(=O)O [CBK296089] | 123.535
CCc1cc(=O)[nH]c(-c2ccc(N3CCCC3C(=O)N(C)C)nc2)n1 (stereo not drawn) [CBK304197] | 119.611
N#Cc1cccc(-n2cc(-c3ccc(Br)cc3F)nn2)c1 [CBK113143] | 141.166
Cc1[nH]c2ccccc2c1C(=O)N1CCC(CC(=O)N2CCN(c3ccccc3)CC2)CC1 [CBK286033] | 113.084
O=C(Nc1nccc(N2CCNCC2)n1)C1CCCC1 [CBK004302T] | 80.0435
O=C(NCCc1ccccc1)N(Cc1ccc(-c2ccccc2)cc1)CC1CCNCC1 [CBK049792] | 98.2779
O=C(O)CCc1ccc(-c2ccc(F)cc2)n1NC(=O)c1ccco1 [CBK268853] | 117.775
O=C(Nc1ccccc1)N[C@H]1CO[C@H]2[C@@H]1OC[C@H]2OC(=O)Nc1ccccc1 [CBK289465] | 115.29
N#Cc1ccc(-c2cc(N3CCN(C(=O)c4ccco4)CC3)ncn2)cc1 [CBK037813] | 135.807
Cc1ccc(CN2C[C@H]3C(=O)Nc4ccccc4C(=O)N[C@@]3(C)C2)o1 [CBK284706] | 106.036
COc1ncc(-c2nc(NC(=O)Cc3cc(F)c(F)c(F)c3)cnc2-c2cccc(C)c2)c(OC)n1 [CBK036717] | 126.772
Cc1cnn(CC(=O)N2CCCCC2CN2CCCCCC2)c1 (stereo not drawn) [CBK282103] | 139.711
Cc1ccc(C2c3c(oc4ccccc4c3=O)C(=O)N2CCCCCC(=O)O)cc1 (stereo not drawn) [CBK287158] | 122.363
COc1ccc(CCCC(=O)Nc2cc3ccccc3c(N3CCNCC3)n2)cc1OC [CBK028417T] | 100
O=C(CCc1ccc(F)cc1)N1CCCC(c2cccc(Cc3ccccc3F)n2)C1 (stereo not drawn) [CBK286512] | 110.212
Cc1cc(NC(=O)CN2CC(C(=O)N3CCN(c4ccccc4)CC3)C2)no1 [CBK285665] | 99.9657
CC(Oc1ccccc1)C(=O)Nc1ccc(C(=O)O)cc1 (stereo not drawn) [CBK287154] | 103.249
Fc1ccc2c(ccn2CCCN2CCN(c3ccncc3)CC2)c1 [CBK043645G] | 113.73
C(=N\c1ccc(Cc2ccncc2)cc1)/c1ccc(/C=N/c2ccc(Cc3ccncc3)cc2)cc1 [CBK262137] | 100
CN1CCc2c(sc3c2C(=O)NC(/C=C\c2ccc([N+](=O)[O-])cc2)N3)C1 (stereo not drawn) [CBK262909] | 112.561
CC(=O)N1CC(C(=O)N2CC3(CCCC3)c3c(F)cccc32)C1 [CBK306292] | 96.7769
Cc1ccc(OCC(=O)Nc2ncc(Cc3ccc(F)cc3)s2)cc1 [CBK293930] | 145.584
Cc1cccc(C)c1NC(=O)CC(C(=O)O)N(C)C (stereo not drawn) [CBK267022] | 165.657
CN(C)CCN(C)C(=O)c1ccc(-c2ccccc2CO)nc1N(C)C [CBK076591] | 100
O=C(CSc1nnc(-c2ccccc2O)o1)c1ccc(Cl)cc1 [CBK068032] | 72.6052
Cc1ccccc1-c1ccccc1CC1(C(=O)N(C)C)CCN(C(=O)C2CC=CCC2)CC1 (stereo not drawn) [CBK285733] | 104.082

SMILES | % of control remaining [%]
CCOC(=O)C1CCCN(CCC(=O)Nc2cccc(F)c2)C1 (stereo not drawn) [CBK264275C] | 96.5519
COC(=O)c1cccc(Cn2cc(/C=C\[N+](=O)[O-])c3ccccc32)c1 [CBK269020] | 79.0002
COc1ccc(C(=O)Nc2ccc(N3CCN(C(=O)C(C)(C)C)CC3)cc2)cc1OC [CBK270245] | 155.793
Cc1ccc2nsnc2c1NC(=O)CN1CCN(c2ccc(F)cc2)CC1 [CBK269231] | 107.231
COc1ccc(CC(=O)Nc2cccc(OC(F)(F)F)c2)cc1OC [CBK296734] | 98.3541
O=C(COc1ccccc1)NCc1ccc(OC2CCNCC2)cc1 [CBK028425T] | 112.002
CCC(O)Cn1nc(CCSC)nc1-c1cn(C)c(=O)[nH]c1=O (stereo not drawn) [CBK306588] | 91.6631
Cn1c(=O)n(C)c2cc(S(=O)(=O)NCC3(N)CCOCC3)ccc21 [CBK306266] | 127.153
OCCN1CCN(c2nccnc2-c2ccncc2)CC1 [CBK038084] | 119.167
Cc1ccc(CN(C2CCN(C)CC2)S(=O)(=O)c2ccc(F)cc2F)cc1 [CBK160448T] | 145.004
Cc1ccc(C(=O)COC(=O)c2cccc(C)c2O)cc1[N+](=O)[O-] [CBK264081] | 123.421
CCC(C)(C)c1ccc(S(=O)(=O)N2CCCN(Cc3ccc4cccc(O)c4n3)CC2)cc1 [CBK063051] | 107.753
Cc1[nH]c(=O)[nH]c(=O)c1CC(=O)N1CCCCC1CN1CCCCC1 (stereo not drawn) [CBK286344] | 92.7113
Cc1oc(-c2ccc(Cl)cc2)cc1C(=O)CC#N [CBK047603] | 134.295
CCOc1ccc(-c2nc(N)ncc2Oc2ccc(OC)cc2)c(O)c1 [CBK288105] | 144.579
O=C(Nc1nc2c(Br)cccc2s1)c1nc2ccccc2s1 [CBK287619] | 161.241
O=C(Nc1ccc2c(c1)OCCO2)N1CCN(c2ccccc2)CC1 [CBK155187] | 163.189
Cc1nc(Nc2ccc(Cl)cc2)nc(N2CCN(C)CC2)n1 [CBK023855] | 147.93
CN(C)CCCN1C(=O)C(O)=C(C(=O)c2ccncc2)C1c1ccccc1 (stereo not drawn) [CBK287779] | 100.486
Clc1ccc(Nc2ncnc3c2cnn3-c2ccc(Cl)cc2)cc1 [CBK287356] | 133.832
CCOC(=O)c1c(NC(=O)Cn2cnc([N+](=O)[O-])n2)sc2c1CCC(C)C2 (stereo not drawn) [CBK263058] | 84.6318
Cc1cnc2c(N3CCCC3)nc(-c3cccnc3)cn12 [CBK092277] | 119.158
O=C1NC(=O)c2c(NC(=O)C3CCCCC3)cccc21 [CBK019837] | 126.812
c1cnc(N2CCCC2)c(Sc2nc[nH]n2)n1 [CBK093737] | 112.839
C=C[C@H]1C[N@@]2CC[C@H]1C[C@@H]2CNS(=O)(=O)c1ccc(NC(C)=O)cc1 [CBK288749] | 121.101
Ic1cnn(Cc2nc(-c3ccccc3)no2)c1 [CBK269901] | 116.546

SMILES | % of control remaining [%]
C=CCNC(=O)CSc1nc2sc(C)c(C)c2c(=O)[nH]1 [CBK287350] | 105.528
O=C(Cn1ccc2ccnc(-c3cccs3)c21)NCc1ccncc1 [CBK284734] | 118.107
CN1CCN(c2cccc(-c3cc4ccccc4s3)n2)CC1 [CBK037019] | 163.04
CC1CCCC(C)N1CC(O)COc1ccc(/N=C/c2ccccc2)cc1 (stereo not drawn) [CBK261764] | 115.565
COc1ccccc1-c1cc2nc(C)cc(N3CCOCC3)n2n1 [CBK304532] | 107.277
Fc1ccccc1CN1CCC(Oc2nccnc2OCC2COc3ccccc3O2)CC1 (stereo not drawn) [CBK082979T] | 110.049
COc1ccc(CCN(C)C(=O)CCCc2cc3ccccc3[nH]2)cc1OC [CBK051152] | 160.36
CC(=O)N1CCc2cc(C(O)CN3CCCC4CCCCC43)ccc21 (stereo not drawn) [CBK282924] | 111.16
NS(=O)(=O)c1ccc(Nc2nc(-c3cccs3)cs2)cc1 [CBK262502] | 124.325
CC(=O)Nc1cccc(NC(=O)c2cc(-c3ccncc3)nc3ccc(Cl)cc23)c1 [CBK267773] | 109.396
Cc1ccccc1-c1ccccc1CC1(C(N)=O)CCN(C(=O)CC2CCCCC2)CC1 [CBK285723] | 123.775
CN(C)CCCNC(=O)c1cccc(Nc2cncc(-c3ccc(O)cc3)n2)c1 [CBK122669] | 137.419
COc1ccc(-c2nc(NC(=O)c3ccc(S(N)(=O)=O)cc3)cnc2-c2cccc(C)c2)cc1 [CBK037559] | 188.501
Cc1ccc(-n2c(SCC(=O)N3CCOCC3)nnc2-c2ccccc2O)c(C)c1 [CBK269112] | 137.588
CC(=O)NCC(=O)N1CCC[C@@H]2[C@H]1CCCCc1ccccc1OCC(=O)N2C [CBK292011] | 81.7838
CN(Cc1ccc(-c2ccc(S(C)(=O)=O)cc2)nc1)C1CCN(C(=O)CC2CCCCC2)CC1 [CBK164105T] | 104.217
OCc1ccccc1-c1cn2ccnc2c(N[C@@H]2CCN(Cc3ccccc3)C2)n1 [CBK037969] | 173.494
OCc1ccc(-n2cc(-c3ccc(F)cc3F)nn2)cc1 [CBK112982] | 130.186
CCn1c2ccccc2c2cc(C#N)c(=O)[nH]c21 [CBK013595] | 115.423
COc1ccccc1CC(=O)N1CCC(Cc2ccc(-c3ccccc3)cc2)(C(N)=O)CC1 [CBK285777] | 144.106
O=C(NCCc1nc2cccnc2n1-c1ccccc1)c1ccncc1 [CBK288599] | 105.187
COc1cc(C)c(C)cc1S(=O)(=O)n1ccnc1C [CBK287579] | 104.47
O=c1c2snc(-c3ccc(F)cc3)c2ncn1C1CC1 [CBK282859] | 81.4777
Cc1cc(O)ccc1C(CC(=O)O)c1ccccc1 (stereo not drawn) [CBK013350] | 141.289
CC(=O)Nc1cc(S(=O)(=O)N2CCOCC2)c(Br)cc1C [CBK034334] | 154.531
CN(C)CCN(C)c1ccc(-c2ccc(F)c(Cl)c2)cn1 [CBK036979] | 172.495

Arranged by formula weight (low to high): 5 of the compounds above.
SMILES | % of control remaining [%]
Cc1cc(O)ccc1C(CC(=O)O)c1ccccc1 (stereo not drawn) [CBK013350] | 141.289
C=CCNC(=O)CSc1nc2sc(C)c(C)c2c(=O)[nH]1 [CBK287350] | 105.528
O=C(Cn1ccc2ccnc(-c3cccs3)c21)NCc1ccncc1 [CBK284734] | 118.107
CC(=O)NCC(=O)N1CCC[C@@H]2[C@H]1CCCCc1ccccc1OCC(=O)N2C [CBK292011] | 81.7838
CC(=O)Nc1cccc(NC(=O)c2cc(-c3ccncc3)nc3ccc(Cl)cc23)c1 [CBK267773] | 109.396
